The supplement of paper PMC12067093, “Discovery and optimisation of a covalent ligand for TRIM25 and its application to targeted protein ubiquitination” (Chemical Science, 2025)
The other results are listed elsewhere or left out.

Protein sequences, listed by entry. Tags and fused reporters are not part of them. Lines headed by an entry give the natural chain unless they say otherwise; changes in a name come on top.
UniProt P49757: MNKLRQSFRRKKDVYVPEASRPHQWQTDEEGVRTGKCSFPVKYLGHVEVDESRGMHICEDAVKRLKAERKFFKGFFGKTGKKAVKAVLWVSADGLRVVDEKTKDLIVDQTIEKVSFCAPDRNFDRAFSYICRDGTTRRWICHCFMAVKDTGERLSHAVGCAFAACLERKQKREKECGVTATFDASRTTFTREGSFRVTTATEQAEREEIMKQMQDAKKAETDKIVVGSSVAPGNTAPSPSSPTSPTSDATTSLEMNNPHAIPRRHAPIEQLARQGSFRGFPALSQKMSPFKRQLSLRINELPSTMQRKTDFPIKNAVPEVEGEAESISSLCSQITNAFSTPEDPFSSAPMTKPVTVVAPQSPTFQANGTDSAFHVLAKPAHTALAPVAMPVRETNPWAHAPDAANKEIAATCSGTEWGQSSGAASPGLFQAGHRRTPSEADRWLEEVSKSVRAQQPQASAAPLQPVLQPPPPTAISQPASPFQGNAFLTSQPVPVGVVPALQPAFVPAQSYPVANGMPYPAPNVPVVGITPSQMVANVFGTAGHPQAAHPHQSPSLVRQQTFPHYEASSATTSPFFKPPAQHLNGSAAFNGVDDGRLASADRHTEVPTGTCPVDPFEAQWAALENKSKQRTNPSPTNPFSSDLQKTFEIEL
UniProt Q01968: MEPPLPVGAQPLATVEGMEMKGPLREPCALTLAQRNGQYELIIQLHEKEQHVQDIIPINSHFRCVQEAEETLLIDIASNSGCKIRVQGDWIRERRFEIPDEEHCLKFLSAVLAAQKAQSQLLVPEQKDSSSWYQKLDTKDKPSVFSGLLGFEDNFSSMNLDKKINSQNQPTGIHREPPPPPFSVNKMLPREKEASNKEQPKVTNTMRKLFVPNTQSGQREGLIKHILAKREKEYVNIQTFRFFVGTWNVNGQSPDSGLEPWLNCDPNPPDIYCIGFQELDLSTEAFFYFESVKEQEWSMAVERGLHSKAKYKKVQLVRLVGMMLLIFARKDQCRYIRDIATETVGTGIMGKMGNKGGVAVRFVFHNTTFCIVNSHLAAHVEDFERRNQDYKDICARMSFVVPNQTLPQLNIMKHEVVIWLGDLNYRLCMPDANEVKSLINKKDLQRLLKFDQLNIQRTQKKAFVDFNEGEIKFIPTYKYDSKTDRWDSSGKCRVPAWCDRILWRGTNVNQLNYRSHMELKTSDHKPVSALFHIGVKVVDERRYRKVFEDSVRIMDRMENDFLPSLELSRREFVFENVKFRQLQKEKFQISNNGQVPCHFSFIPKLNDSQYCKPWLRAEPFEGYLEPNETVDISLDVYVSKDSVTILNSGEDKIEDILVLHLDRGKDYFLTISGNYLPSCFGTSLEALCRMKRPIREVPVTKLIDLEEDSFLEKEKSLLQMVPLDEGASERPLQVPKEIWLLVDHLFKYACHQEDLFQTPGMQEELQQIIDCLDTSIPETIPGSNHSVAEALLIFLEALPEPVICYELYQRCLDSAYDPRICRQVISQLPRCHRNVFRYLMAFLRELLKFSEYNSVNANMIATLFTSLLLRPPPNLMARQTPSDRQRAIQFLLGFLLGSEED
UniProt Q8TB37: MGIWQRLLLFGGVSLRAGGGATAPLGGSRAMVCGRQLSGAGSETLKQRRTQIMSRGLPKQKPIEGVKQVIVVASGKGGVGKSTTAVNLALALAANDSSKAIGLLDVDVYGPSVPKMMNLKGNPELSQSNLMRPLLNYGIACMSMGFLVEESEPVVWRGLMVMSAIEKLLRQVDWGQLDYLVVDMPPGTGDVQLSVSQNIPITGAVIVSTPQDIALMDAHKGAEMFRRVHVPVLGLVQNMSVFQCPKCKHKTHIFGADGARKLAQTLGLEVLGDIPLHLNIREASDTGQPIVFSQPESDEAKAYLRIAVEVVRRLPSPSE
UniProt Q6PK18: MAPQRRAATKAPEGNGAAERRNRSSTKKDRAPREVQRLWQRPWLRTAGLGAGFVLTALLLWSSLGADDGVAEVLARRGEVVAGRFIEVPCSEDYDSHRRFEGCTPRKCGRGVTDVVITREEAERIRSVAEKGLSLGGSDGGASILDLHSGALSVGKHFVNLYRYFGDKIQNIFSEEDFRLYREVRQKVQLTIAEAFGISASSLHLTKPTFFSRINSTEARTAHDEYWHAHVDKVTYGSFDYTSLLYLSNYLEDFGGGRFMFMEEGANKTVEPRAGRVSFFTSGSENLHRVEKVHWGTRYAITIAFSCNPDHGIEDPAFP
UniProt Q9Y6K5: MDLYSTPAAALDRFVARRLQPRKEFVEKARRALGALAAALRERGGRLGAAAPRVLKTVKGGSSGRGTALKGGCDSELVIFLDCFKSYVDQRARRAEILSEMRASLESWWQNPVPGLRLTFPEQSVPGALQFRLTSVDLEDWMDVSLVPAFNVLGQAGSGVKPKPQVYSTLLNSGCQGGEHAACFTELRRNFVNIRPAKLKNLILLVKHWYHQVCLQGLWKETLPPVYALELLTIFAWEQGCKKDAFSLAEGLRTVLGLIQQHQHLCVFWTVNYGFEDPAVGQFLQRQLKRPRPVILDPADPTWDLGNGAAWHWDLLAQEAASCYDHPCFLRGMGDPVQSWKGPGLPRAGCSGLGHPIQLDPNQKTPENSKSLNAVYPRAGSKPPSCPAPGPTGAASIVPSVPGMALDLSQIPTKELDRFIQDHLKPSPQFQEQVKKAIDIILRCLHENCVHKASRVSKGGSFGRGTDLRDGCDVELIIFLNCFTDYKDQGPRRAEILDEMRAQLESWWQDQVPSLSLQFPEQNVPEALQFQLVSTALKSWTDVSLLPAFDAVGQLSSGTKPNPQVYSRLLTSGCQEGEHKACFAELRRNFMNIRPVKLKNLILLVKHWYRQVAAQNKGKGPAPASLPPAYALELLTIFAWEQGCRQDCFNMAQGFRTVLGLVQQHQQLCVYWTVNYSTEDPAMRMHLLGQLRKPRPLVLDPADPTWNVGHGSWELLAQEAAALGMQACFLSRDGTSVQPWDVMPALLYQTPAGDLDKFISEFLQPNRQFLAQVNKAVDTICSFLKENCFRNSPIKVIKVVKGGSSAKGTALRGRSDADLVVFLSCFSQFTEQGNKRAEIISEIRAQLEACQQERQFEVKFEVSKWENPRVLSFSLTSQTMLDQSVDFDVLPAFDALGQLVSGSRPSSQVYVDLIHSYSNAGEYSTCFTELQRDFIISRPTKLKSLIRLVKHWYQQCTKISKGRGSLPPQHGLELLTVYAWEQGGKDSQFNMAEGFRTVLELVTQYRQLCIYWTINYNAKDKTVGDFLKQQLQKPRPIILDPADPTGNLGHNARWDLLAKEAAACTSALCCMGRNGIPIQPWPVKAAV
UniProt Q9BQG2: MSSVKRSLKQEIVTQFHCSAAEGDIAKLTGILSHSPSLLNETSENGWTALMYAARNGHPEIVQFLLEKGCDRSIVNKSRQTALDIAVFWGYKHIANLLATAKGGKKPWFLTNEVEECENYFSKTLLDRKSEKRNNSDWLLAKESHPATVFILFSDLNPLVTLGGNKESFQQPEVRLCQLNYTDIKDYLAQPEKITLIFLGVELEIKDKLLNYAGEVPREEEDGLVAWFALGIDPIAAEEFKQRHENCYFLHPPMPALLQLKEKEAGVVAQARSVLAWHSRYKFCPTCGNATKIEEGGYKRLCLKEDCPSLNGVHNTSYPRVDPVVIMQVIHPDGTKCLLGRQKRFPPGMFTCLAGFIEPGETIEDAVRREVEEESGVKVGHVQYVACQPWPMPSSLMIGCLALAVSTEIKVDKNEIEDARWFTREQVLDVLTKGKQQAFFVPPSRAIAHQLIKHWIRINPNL
UniProt Q96RS6: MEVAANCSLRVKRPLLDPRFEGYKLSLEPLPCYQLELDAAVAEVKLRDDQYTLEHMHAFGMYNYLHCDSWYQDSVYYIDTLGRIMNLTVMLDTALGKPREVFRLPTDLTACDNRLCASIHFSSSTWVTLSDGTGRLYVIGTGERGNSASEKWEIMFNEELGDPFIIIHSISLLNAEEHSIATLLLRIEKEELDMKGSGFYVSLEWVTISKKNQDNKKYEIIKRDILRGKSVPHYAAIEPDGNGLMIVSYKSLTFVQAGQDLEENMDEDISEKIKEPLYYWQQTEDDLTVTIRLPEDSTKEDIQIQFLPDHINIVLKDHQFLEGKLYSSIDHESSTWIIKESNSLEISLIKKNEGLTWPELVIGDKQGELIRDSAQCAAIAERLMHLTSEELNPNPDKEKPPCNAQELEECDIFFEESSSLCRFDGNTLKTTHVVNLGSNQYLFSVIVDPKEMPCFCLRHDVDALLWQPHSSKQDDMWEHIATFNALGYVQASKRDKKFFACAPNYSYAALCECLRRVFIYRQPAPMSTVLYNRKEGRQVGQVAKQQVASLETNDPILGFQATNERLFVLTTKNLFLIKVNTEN
UniProt Q02218: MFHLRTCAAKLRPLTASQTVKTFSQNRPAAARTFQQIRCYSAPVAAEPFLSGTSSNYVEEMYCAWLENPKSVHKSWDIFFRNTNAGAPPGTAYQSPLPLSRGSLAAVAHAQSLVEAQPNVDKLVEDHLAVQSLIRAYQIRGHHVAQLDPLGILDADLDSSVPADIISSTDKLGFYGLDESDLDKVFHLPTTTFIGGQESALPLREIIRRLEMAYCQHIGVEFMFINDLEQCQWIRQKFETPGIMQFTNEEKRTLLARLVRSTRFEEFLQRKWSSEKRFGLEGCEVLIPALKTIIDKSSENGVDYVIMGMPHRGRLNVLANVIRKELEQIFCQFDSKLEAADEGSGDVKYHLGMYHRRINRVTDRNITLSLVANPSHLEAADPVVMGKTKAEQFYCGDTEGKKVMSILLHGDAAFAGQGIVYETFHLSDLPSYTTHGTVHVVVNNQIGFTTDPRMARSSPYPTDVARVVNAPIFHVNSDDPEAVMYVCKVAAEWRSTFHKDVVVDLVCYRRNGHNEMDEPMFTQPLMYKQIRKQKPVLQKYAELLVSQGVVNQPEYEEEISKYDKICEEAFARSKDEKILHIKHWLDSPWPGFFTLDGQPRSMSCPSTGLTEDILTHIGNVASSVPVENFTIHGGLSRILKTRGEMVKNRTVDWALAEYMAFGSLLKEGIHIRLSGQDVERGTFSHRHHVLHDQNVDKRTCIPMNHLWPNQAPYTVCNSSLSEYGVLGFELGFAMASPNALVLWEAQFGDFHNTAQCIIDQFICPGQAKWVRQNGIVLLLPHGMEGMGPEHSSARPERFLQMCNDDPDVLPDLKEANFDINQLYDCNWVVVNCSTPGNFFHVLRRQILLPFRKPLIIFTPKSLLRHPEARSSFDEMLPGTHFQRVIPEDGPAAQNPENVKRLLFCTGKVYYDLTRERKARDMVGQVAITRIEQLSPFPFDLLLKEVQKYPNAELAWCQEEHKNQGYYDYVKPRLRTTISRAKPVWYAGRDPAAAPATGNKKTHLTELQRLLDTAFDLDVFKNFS
UniProt O15381: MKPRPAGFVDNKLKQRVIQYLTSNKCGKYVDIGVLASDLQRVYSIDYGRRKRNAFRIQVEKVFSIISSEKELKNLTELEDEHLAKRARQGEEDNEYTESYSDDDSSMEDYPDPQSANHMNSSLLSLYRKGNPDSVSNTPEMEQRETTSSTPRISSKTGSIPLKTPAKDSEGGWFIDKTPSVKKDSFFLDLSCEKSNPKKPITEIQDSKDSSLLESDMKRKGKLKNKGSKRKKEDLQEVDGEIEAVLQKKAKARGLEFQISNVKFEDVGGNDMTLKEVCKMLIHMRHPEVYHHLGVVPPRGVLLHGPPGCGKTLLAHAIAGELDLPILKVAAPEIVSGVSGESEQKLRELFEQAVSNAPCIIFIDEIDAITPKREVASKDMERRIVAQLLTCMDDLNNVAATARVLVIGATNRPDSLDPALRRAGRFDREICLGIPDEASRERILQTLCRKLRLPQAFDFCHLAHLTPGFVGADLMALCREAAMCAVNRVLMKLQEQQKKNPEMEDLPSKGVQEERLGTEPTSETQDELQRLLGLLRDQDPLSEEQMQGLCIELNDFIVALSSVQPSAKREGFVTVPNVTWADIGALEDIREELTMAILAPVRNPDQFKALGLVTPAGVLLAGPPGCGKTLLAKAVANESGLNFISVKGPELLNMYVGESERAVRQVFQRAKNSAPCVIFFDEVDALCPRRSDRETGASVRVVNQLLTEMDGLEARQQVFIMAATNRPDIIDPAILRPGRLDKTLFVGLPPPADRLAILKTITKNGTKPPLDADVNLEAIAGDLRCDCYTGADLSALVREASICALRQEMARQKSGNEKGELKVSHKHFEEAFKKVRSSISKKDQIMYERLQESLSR
UniProt Q9Y5Y2: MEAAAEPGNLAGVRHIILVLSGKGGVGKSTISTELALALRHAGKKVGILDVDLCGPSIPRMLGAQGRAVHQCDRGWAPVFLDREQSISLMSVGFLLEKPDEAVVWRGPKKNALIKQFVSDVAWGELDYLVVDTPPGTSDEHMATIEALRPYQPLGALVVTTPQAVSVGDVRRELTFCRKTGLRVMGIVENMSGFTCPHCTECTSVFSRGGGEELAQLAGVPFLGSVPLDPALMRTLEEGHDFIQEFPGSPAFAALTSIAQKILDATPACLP

These targets were tested with CC1Cc2ccccc2N1C(=O)C1CCCN(C1)C(=O)CCl (mixture of isomers) [TRIM25 ligand 11 (diastereomer mixture)] (assay: probe-labelled cysteine peptide fold change vs DMSO (competition) (log2 fold change); higher = less target engagement (more negative = stronger competition)). Conditions: 50 µM; THP-1; incubation time: 4 h.
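Note: competitive chemoproteomic profiling in live THP-1 cells with an iodoacetamide desthiobiotin (IA-DTB) probe, comparing probe-labelled peptide intensities in compound-treated cells against DMSO-treated controls.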

Row | Target | probe-labelled cysteine peptide fold change
1 | OBSL1_O75147_362_EHGIAVLECK (UniProt O75147) | 0.0181
2 | NUDT8_Q8WV74_71_CDPADQDVVHTALR (UniProt Q8WV74) | 0.139
3 | NUP160_Q12769_369_RGQFCIFQLVSTESNR (UniProt Q12769) | 0.0881
4 | NUMB_P49757_58_GMHICEDAVK (UniProt P49757) | -0.0288
5 | NUMA1_Q14980-4_1729_SREPQAKPQLDLSIDSLDLSCEEGTPLSITR (UniProt Q14980) | -0.0534
6 | NXF3_Q9H4D5_214_LAMNQQCDVSQEALDIQR (UniProt Q9H4D5) | 0.248
7 | NUP160_Q12769_303_GDQSPSDRPLSLAVHCVEHDAFIFALCQDHK (UniProt Q12769) | 0.137
8 | OGA_O60502_863_SMMACLLSSLK (UniProt O60502) | 0.0112
9 | OCIAD2_Q56VL3_46_ECQEESFWK (UniProt Q56VL3) | 0.159
10 | NUP50_Q9UKX7_416_ADTNLGNILLNVLIPPNMPCTR (UniProt Q9UKX7) | -0.24
11 | NUDT21_O43809_144_QDGVLQDWVIDDCIGNWWRPNFEPPQYPYIPAHITKPK (UniProt O43809) | 0.0245
12 | OCRL_Q01968_611_LNDSQYCKPWLR (UniProt Q01968) | -0.46
13 | NUBPL_Q8TB37_244_VHVPVLGLVQNMSVFQCPK (UniProt Q8TB37) | 0.0228
14 | OCRL_Q01968_370_FVFHNTTFCIVNSHLAAHVEDFER (UniProt Q01968) | 0.293
15 | OGFOD3_Q6PK18_103_RFEGCTPR (UniProt Q6PK18) | 0.101
16 | OCRL_Q01968_679_DYFLTISGNYLPSCFGTSLEALCR (UniProt Q01968) | 0.149
17 | OAS3_Q9Y6K5_350_AGCSGLGHPIQLDPNQK (UniProt Q9Y6K5) | -0.0671
18 | NUP160_Q12769_480_ALQIFCR (UniProt Q12769) | -0.0596

Row | Target | probe-labelled cysteine peptide fold change
19 | NUDT12_Q9BQG2_18_QEIVTQFHCSAAEGDIAK (UniProt Q9BQG2) | -0.3
20 | NUP54_Q7Z3B4_171_GYFNNNIPPVEFTQENPFCR (UniProt Q7Z3B4) | -0.122
21 | NUP43_Q8NFH3_222_QQGNEPSQILSLTGDRVPLHCVDRHPNQQHVVATGGQDGMLSIWDVR (UniProt Q8NFH3) | -0.276
22 | NTHL1_P78549_290_ELWHEINGLLVGFGQQTCLPVHPR (UniProt P78549) | 0.162
23 | NUP88_Q99567_447_CFVEHILCTK (UniProt Q99567) | 0.0669
24 | NXF1_Q9UBU9_252_SCMAATLR (UniProt Q9UBU9) | 0.0649
25 | NUMB_P49757_611_HTEVPTGTCPVDPFEAQWAALENK (UniProt P49757) | -0.273
26 | NUP214_P35658_298_HPEIFVNFMEPCYGSCTER (UniProt P35658) | -0.13
27 | NUTF2_P61970_80_IQHSITAQDHQPTPDSCIISMVVGQLKADEDPIMGFHQMFLLK (UniProt P61970) | -0.409
28 | NUDCD1_Q96RS6_7_MEVAANCSLR (UniProt Q96RS6) | -0.22
29 | OGDH_Q02218_283_RFGLEGCEVLIPALK (UniProt Q02218) | 0.124
30 | NUP153_P49790_753_CVACETPKPGTCVK (UniProt P49790) | -0.212
31 | NVL_O15381_431_EICLGIPDEASR (UniProt O15381) | -0.136
32 | OGDH_Q02218_487_VVNAPIFHVNSDDPEAVMYVCK (UniProt Q02218) | -0.158
33 | NUDCD1_Q96RS6_402+410+421_EKPPCNAQELEECDIFFEESSSLCR (UniProt Q96RS6) | 0.0365
34 | NUP205_Q92621_141_CIANSLK (UniProt Q92621) | 0.156
35 | NUP98_P52948_1347_ISEACSLAQQSGDHR (UniProt P52948) | 0.166
36 | NUBP2_Q9Y5Y2_72_AVHQCDR (UniProt Q9Y5Y2) | 0.214
